# At least one structure is not confirmed: it was looked up by name or label, or the drawing left a doubt.
# What was measured:
# [1] = system: barnyardgrass (Echinochloa crus-galli), sourgrass (Digitaria insularis), foxtail grass (Setaria faberi), Johnsongrass (Sorghum halepense), or corn (Zea mays L.); assay: Greenhouse pot test, spot foliar treatment of weed patches with the crop already growing (Example 2); assay type: in vivo; conditions: spot foliar treatment of 20% of the pot area, 70 g/ha, 200 L/ha, 1% (w/v) Agri-Dex; weeds and crops grown 14 days before treatment and 21 days after; compared with plots without crop and with uniform blanket treatment at 70 g/ha
# [2] = system: barnyardgrass (Echinochloa crus-galli), sourgrass (Digitaria insularis), foxtail grass (Setaria faberi), Johnsongrass (Sorghum halepense), or corn (Zea mays L.); assay: Greenhouse pot test, spot foliar treatment of weed patches, crop seeded immediately after treatment (Example 1); assay type: in vivo; conditions: spot foliar treatment of 20% of the pot area, 100 g/ha, 150 L/ha, 1% (w/v) Agri-Dex; soybean, sugar beet, rapeseed, sunflower or cotton seeded after treatment, grown 21 days; compared with plots without crop and with uniform blanket treatment at 100 g/ha
# volunteer corns = assay: Field test in soybean, uniform blanket treatment against volunteer corn (Reference Example, conventional method); assay type: in vivo, Zea mays L.; conditions: uniform blanket treatment at V3 stage of soybean, 70, 100 or 140 g/hectare, 150 liters/hectare, 0.5% (v/v) Agridex; assessed in the soybean grain-filling stage
smiles,measurement,setting,value
CCSC(C)CC1CC(=O)C(/C(CC)=N/OC/C=C/Cl)=C(O)C1 (stereo not drawn) [clethodim],weed control effect,[1],excellent weed control effect
same,weed control effect,[2],excellent weed control effect
same,volunteer corn in the entire agricultural field,volunteer corns,almost no volunteer corn
